Assay results from article PMC6406679.
Results are given in words; binding and its absence hold for the method and conditions named. Binding seen in cells or lysates may run through a third protein. A yes stands for co-enrichment or nearness to the bait. Other partners may have been found.

Protein sequences, listed by entry. Tags and fused reporters are not part of them.
UniProt Q96RU7: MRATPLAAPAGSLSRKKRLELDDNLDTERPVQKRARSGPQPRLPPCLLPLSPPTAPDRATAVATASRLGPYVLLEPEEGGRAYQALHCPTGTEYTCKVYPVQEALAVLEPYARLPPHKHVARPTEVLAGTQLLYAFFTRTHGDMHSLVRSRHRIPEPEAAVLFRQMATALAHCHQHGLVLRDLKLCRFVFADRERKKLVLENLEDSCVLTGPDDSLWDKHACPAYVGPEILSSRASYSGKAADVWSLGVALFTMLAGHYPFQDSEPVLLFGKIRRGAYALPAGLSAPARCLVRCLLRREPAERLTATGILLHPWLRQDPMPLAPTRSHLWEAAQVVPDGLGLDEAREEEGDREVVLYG
UniProt O43143: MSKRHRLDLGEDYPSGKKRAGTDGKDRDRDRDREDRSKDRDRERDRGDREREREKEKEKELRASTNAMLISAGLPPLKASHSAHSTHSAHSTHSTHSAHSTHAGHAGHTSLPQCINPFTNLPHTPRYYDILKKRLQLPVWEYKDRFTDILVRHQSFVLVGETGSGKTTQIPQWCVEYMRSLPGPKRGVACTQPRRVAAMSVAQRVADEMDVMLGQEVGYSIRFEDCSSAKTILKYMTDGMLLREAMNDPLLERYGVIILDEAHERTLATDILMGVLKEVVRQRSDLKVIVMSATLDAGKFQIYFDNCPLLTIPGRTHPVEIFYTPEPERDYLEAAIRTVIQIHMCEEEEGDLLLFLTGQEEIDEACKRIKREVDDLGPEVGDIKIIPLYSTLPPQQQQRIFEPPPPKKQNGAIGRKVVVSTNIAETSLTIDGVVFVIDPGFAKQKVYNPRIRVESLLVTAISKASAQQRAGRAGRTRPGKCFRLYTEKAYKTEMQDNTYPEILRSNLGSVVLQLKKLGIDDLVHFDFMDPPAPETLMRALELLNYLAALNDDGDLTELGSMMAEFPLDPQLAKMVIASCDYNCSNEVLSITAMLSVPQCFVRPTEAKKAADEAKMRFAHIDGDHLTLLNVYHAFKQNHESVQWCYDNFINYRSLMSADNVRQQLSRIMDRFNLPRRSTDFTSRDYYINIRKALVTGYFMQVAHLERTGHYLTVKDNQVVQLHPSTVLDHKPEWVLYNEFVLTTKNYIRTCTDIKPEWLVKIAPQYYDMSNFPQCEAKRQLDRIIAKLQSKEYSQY
UniProt Q9NR30: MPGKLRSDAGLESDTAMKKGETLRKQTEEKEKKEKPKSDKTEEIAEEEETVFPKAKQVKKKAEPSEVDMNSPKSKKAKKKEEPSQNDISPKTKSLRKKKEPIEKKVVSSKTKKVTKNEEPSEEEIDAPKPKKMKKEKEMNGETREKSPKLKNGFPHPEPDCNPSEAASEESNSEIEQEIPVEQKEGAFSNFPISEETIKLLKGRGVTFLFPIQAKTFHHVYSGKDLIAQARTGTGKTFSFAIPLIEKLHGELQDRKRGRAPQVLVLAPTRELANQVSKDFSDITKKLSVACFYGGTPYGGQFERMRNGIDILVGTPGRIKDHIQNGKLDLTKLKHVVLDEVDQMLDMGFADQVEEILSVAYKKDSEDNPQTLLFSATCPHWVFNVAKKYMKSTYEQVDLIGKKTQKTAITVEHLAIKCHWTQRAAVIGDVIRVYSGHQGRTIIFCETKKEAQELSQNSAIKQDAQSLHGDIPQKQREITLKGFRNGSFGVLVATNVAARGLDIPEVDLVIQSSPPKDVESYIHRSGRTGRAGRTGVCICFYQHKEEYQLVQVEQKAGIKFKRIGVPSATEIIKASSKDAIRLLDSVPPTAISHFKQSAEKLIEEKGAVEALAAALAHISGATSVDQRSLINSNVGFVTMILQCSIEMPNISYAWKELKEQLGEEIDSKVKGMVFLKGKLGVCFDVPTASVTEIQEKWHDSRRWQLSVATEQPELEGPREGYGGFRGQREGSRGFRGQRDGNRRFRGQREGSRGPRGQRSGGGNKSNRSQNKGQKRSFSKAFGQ
UniProt Q92841: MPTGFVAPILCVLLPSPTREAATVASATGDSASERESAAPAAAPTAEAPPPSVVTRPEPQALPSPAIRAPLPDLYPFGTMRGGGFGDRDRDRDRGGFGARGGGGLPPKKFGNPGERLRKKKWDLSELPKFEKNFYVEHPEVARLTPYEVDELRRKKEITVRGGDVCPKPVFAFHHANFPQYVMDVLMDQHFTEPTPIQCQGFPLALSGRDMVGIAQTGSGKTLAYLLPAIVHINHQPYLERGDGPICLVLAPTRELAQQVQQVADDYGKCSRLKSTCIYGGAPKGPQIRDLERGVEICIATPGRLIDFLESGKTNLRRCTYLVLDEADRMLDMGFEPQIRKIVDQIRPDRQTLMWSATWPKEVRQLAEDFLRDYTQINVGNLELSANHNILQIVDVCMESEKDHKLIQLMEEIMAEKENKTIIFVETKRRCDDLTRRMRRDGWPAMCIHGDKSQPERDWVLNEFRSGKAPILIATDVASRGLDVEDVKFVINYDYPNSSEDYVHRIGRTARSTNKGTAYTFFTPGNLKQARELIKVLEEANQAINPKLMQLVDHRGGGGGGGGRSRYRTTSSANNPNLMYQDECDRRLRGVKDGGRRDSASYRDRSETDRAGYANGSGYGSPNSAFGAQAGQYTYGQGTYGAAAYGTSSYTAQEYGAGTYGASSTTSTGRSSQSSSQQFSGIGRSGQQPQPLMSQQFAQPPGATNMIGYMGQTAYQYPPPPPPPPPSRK
UniProt Q9NYF8: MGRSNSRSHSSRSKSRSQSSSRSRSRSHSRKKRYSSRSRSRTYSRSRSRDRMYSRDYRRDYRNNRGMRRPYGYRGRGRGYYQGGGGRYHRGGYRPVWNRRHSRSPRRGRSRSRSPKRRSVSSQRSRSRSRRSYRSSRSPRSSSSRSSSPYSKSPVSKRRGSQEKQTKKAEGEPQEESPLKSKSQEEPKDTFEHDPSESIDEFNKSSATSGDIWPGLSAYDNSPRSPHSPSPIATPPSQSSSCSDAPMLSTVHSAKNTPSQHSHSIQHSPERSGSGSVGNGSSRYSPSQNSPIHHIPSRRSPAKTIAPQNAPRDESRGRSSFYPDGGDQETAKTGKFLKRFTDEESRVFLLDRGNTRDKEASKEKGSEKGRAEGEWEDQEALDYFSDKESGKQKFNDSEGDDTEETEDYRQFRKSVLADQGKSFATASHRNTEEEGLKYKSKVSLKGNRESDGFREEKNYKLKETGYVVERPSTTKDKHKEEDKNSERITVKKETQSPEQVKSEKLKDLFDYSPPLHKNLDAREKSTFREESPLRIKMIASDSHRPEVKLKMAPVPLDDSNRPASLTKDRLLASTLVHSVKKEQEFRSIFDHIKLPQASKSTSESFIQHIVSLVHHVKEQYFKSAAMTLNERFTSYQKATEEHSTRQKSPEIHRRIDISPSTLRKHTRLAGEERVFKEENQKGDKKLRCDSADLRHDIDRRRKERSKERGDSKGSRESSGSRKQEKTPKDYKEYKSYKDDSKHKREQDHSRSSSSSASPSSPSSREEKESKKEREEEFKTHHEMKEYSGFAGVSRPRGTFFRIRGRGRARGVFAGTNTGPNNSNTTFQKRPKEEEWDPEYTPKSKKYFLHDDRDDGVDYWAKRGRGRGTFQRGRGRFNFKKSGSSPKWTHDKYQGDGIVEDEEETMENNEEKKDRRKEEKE

B1: BCL2 interacting protein 1 (BNIP1) (protein, UniProt Q12981 1-228)
chain: MAAPQDVHVRICNQEIVKFDLEVKALIQDIRDCSGPLSALTELNTKVKEKFQQLRHRIQDLEQLAKEQDKESEKQLLLQEVENHKKQMLSNQASWRKANLTCKIAIDNLEKAELLQGGDLLRQRKTTKESLAQTSSTITESLMGISRMMAQQVQQSEEAMQSLVTSSRTILDANEEFKSMSGTIQLGRKLITKYNRRELTDKLLIFLALALFLATVLYIVKKRLFPFL

biological target: Tribbles homolog 3 (TRIB3) (human (endogenous in MDA-MB-231)) (UniProt Q96RU7); experiment: affinity purification with mass spectrometry; 1 ug anti-TRIB3 antibody with 1 mg total protein from MDA-MB-231 cells and the radioresistant sub-line, 4 C overnight, Protein A magnetic beads; SDS-PAGE, in-gel digestion, LTQ-FTICR MS, label-free quantification

binding, binds:
DDX15 (from UniProt O43143 1-795), DDX21 (from UniProt Q9NR30 1-783), DDX17 (from UniProt Q92841 1-729), BCL2-associated transcription factor 1 (BCLAF1) (from UniProt Q9NYF8 1-920), B1
